Reference: the supplement of paper PMC5949888
± gives the standard deviation of the averaged measurements. Most values lie at the floor of the assay. Slopes are relative: functional sequences can read slightly below zero.

Test system: Saccharomyces cerevisiae PS128 hsf1 delta, HSF1(1-493) fusion
Assay: growth estimate (transactivation domain function in HSF1 fusion, heat-shock survival) (a.u. (slope of normalised read count over time)); higher = stronger growth at 37°C, i.e. more transactivation activity
Settings: library: random library

Substance	growth estimate
CIVRDVRDLCTITSWAVLPG	< -0.25
TAQ	-0.245 ± 0.0065
SGVIVALRVVSTHGRRMRLK	< -0.25
QIKLLLGFSLI	< -0.25
LQINS	< -0.25
QYGQFCG	< -0.25
PFHVSRLGSRARL	< -0.25
TSGRILSFKQYMSVDHVYP	< -0.25
LYWGISVCVVLELALIRSNN	< -0.25
VFCNYPYWGQLRAIFDAQCC	-0.248
VSRPG	< -0.25
PIDARSMLRR	< -0.25
SRFSDPLVGLRQRGSTRLFR	< -0.25
RDGRLPWYMSTPPATKY	< -0.25
RSSDLWHEVMFRVLRLVGRR	< -0.25
GTDLGGDSGVRALE	< -0.25
IAPWSAIFNQV	< -0.25
GVGCGQRAKSKVLYTNMKLH	< -0.25
MSAKRIAVRISRVLGFQLAV	< -0.25
GAQVEGEIASGAYS	< -0.25
WNSV	< -0.25

Substance	growth estimate
IRNVRVACAPRRDEGSIDIT	< -0.25
RDVTRPGCGTLIPGFVAVPV	< -0.25
NWGLDRDEFYRAERAYWDEL	-0.171
RVRRPLASNSWRGEGYALCP	< -0.25
TGYGKGSLDGP	< -0.25
TRRLPGVCLKNCAKGWIPVD	< -0.25
IRVRARVGYGVLGGRYRGLS	< -0.25
YQTA	< -0.25
PGAVLLLTQIKFDASRGHPP	< -0.25
WSQQDLDGRKRPEADTWQIR	< -0.25
FTLLLNSLR	< -0.25
SCMWLRTIVGSCQGI	< -0.25
RHKYGVL	< -0.25
ARGR	< -0.25
PLHCSALATA	< -0.25
RMGLWGTMASQS	< -0.25
HIYRYHAHPPFTPHYANSEA	< -0.25
LQAENALPPIVGPLTGIEHR	-0.179
DEFVIFIYVVASNNSAEVPT	< -0.25
KLGTISTYCITLGS	< -0.25
VIREPMESSVRYGFSCCRET	< -0.25

Substance	growth estimate
DAAA	< -0.25
LCNPLIVVSNIPGDGRAIRV	< -0.25
ASYGSLGLNSEVGTFRTYPS	< -0.25
FATGTPSVHCVRMITPQLSQ	< -0.25
AYAGE	< -0.25
ISFS	< -0.25
AGFLQESYCTRNAVPHECTW	< -0.25
LRAFGGHGARI	< -0.25
GPNTAEVLISNLRSIKPNAP	< -0.25
NKRRAHVVGAIQVRRHQCVK	< -0.25
YKREIEITRRGLTGLLGNST	< -0.25
ELTSLADRRRFYLPVTESSP	< -0.25
WNI	< -0.25
MDLGILDTAKSCVLSRRFRQ	< -0.25
QDWF	< -0.25
NVKSL	0.0603
QIWWPVFDGACTDKLSVGCP	< -0.25
ASCIGQPL	< -0.25
LGYQKVCMRLELNG	< -0.25
RGVNAG	< -0.25
TFVTIYTFVFGSSGVAGNTG	< -0.25

For convenience, part of the list above.
Substance	growth estimate
TAQ	-0.245 ± 0.0065
SGVIVALRVVSTHGRRMRLK	< -0.25
QIKLLLGFSLI	< -0.25

Next part:

Substance	growth estimate
DASPYK	-0.233
GHSIGLGVKPGQSATAPLSI	< -0.25
GAPGRRSEFPGGGVDVI	< -0.25
ASRDT	< -0.25
LKAWLSVHSGRVDPYGLAYC	< -0.25
DIKVCLWYFGT	-0.203
QNALSRHSPPCNDFPVEYTN	< -0.25
GKTV	< -0.25
LRSVWTSAIARPVYAMIAAV	< -0.25
LRSTL	< -0.25
LVK	< -0.25
PERH	< -0.25
CLHEDMPPR	< -0.25
KQLICL	< -0.25
VTTVKVQGVGGWCARSTTFY	< -0.25
DVCDIRNAWNAGVGWIGATC	< -0.25
TILTREEGDLKF	< -0.25
FVFVSLSFHQRTSLTMG	< -0.25
SNSGYRTWVEGPSIDCSQSA	< -0.25
